From ChEMBL document CHEMBL3988442, “University of Dundee, Small-Polar-MMV Screening Library” (2021).

Sequences of proteins named here, by UniProt entry; tags and fusion partners are left off.
UniProt E9BF75, entry or part of it: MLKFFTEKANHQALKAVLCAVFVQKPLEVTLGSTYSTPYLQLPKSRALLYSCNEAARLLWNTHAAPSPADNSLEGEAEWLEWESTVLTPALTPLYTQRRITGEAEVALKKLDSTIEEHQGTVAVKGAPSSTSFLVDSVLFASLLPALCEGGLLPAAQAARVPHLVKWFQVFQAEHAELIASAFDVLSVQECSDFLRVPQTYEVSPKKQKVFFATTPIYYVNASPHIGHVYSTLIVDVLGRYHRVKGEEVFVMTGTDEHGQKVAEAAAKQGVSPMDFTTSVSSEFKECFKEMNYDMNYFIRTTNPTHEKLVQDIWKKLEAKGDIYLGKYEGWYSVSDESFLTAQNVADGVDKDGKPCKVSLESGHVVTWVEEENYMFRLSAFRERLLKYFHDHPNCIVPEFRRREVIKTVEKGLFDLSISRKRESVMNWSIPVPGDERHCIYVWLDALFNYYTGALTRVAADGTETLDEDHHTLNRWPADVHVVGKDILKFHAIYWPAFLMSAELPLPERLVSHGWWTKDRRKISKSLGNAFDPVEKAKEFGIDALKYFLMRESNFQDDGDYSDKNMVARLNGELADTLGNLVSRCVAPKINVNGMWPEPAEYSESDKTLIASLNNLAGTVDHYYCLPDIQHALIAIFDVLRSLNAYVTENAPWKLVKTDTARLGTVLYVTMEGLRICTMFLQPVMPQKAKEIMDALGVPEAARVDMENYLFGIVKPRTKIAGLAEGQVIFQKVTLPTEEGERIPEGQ

Results are percentages, as filed. The controls that fix the scale are not given in the record; negative values are as filed. This is an unselected part of the compounds tested. A dash means the value is not listed here; it may have been measured.

LdMetRS: 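Primary screen of methionyl-tRNA synthetase; the read-out is not stated. Target: Methionyl-tRNA synthetase (putative), Leishmania donovani (UniProt E9BF75). The test concentration is not given. The values are filed as inhibition. About 68,000 compounds were tested under these conditions; 0.035% (about 24) showed 50% or more at least once.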
Mtb heat-shock: 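Assay on Mycobacterium tuberculosis, filed only as a heat shock assay from Cornell; the read-out is not stated. The concentration is filed as 10 mM, unlikely as a test dose, so the dose is not known. The record gives no direction; compounds that gave an IC50 in retests scored well above the rest, so higher reads as stronger inhibition. Size under these conditions: about 69,000 compounds, about 930 of them at 50% or above in at least one test.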

| structure | LdMetRS | Mtb heat-shock |
|---|---|---|
| `O=C(c1ccc2c(c1)OCCCO2)N1CCCCC1C1OCCO1` (stereo unspecified) | 10.34 | -11.12 |
| `Cc1nc(C2CCN(S(=O)(=O)c3ccc(Cl)cc3)CC2)n[nH]1` | 22.06 | -16.49 |
| `CC(=O)N1CCC2(CC1)c1ncc(-c3cccnc3)n1CCN2C` | 20.16 | 17.03 |
| `COc1cccc(N2CCN(C(C(=O)O)c3ccc(OC)nc3)CC2)c1` (stereo unspecified) | 15.16 | -24.13 |
| `Cn1cc(CN2CCC3(CC(=O)N(c4ccc5c(c4)OCO5)C3)C2)cn1.O=C(O)C(F)(F)F` (stereo unspecified) | - | 1.439 |
| `CCCNC(=O)COc1cc(C)c2c(C)nn(-c3ccc(C)cc3)c2n1` | 15.67 | -24.77 |
| `O=C(NCC1CCCN1Cc1ccccc1)NCC1(O)CCC1` (stereo unspecified) | 2.041 | -23.51 |
| `CN1CC[C@H](c2nnc(-c3cncn3C)o2)C1` | 9.774 | 2.354 |
| `COCc1nc2cc(NCc3ccc(CO)o3)ccc2o1` | -2.198 | -21.34 |
| `Cc1ccc(C)c(C(=O)N2CCC3(CCC(=O)N(CC(N)=O)C3)CC2)c1` | 4.249 | -17.25 |
| `COc1ccc(CCNC(=O)CC(NC(N)=O)c2ccccc2)cc1` (stereo unspecified) | -9.028 | 11.2 |
| `Cc1ccc2[nH]c([C@H]3CCN(CC4CCCCC4)C3)nc2c1` | 4.945 | 2.512 |
| `CCNC(c1ccc(C(C)C)cc1)c1cccnc1` (stereo unspecified) | 24.5 | -4.419 |
| `CCn1cc(Cl)c(C(=O)Nc2ccc3c(c2)C(C)(C)C(=O)N3C)n1` | 17.56 | -10.64 |
| `N#Cc1ccc(C(=O)N2CCCC3(C=Cc4ccccc4O3)CC2)cn1` (stereo unspecified) | 8.193 | 23.4 |
| `CC(NC(=O)N1CCNC(=O)CC1)c1ccc(OC(F)F)cc1` (stereo unspecified) | 9.065 | -13.37 |
| `CNC(=O)c1c[nH]nc1C1CCCN1c1ncccn1` (stereo unspecified) | 17.02 | 13.59 |
| `CC1(c2ccccc2)CCC(=O)N(CCN2CCOC2=O)C1` (stereo unspecified) | 14.34 | -14.81 |
| `Cc1cccc(-n2ncc3c(=O)n(CCN4CCCCC4)cnc32)c1C` | 12.68 | -10.43 |
| `CCn1cc(-c2cncn2CCc2ccc3c(c2)OCCO3)cn1.Cl` | - | 7.144 |
| `Cc1ccc(CN(C)Cc2cc(C3CC3)[nH]n2)c(O)n1` | 5.587 | 8.954 |
| `CC(C)N1CCc2c(c(COc3cccnc3)nn2CC2CC2)C1.O=C(O)C(F)(F)F.O=C(O)C(F)(F)F.O=C(O)C(F)(F)F` | - | -42.55 |
| `CCc1c(C)nc2n(c1=O)CC(C(=O)Nc1ccccc1C)CS2` (stereo unspecified) | 9.051 | -17.52 |
| `O=C(O)C(F)(F)F.[H][C@@]12CCCO[C@]1([H])[C@H](NC(=O)N(C)C)CN2Cc1ccc2c(c1)OCO2` | - | -2.928 |
| `O=C(COCc1ccccc1Cl)N1CCN(c2cnccn2)CC1` | 1.344 | -15.63 |
| `[H][C@]12CN(Cc3ncccn3)CC[C@@]1(O)CCN(C(=O)C1CCCC1)C2` | - | 13.58 |
| `c1cnc(NCc2n[nH]c3c2CCN(Cc2ccncc2)C3)nc1` | 7.246 | 0.2028 |
| `CN(C)[C@@H]1CCN(c2ncc(F)cn2)[C@H]1Cc1ccccc1` | 14.01 | - |
| `C=C/C=c1\c(=C/C)oc2c(NCc3ccccc3)nc(CC)nc12` | 18.28 | 75.04 |
| `Cc1noc(C)c1CN1C(=O)[C@H]2CC[C@@H]1CN(Cc1cccc(O)c1)C2` | -7.865 | - |
| `CN(C)CC1(O)CCCN(C(=O)c2ccccc2-n2cncn2)C1` (stereo unspecified) | 11.8 | -8.106 |
| `CCO[C@@H]1CC[C@H]2[C@H]1OCCN2Cc1ccoc1` | 9.819 | - |
| `O=C(O)C(F)(F)F.[H][C@@]12CCCO[C@]1([H])[C@H](NS(C)(=O)=O)CN(Cc1ccco1)C2` | - | -38.31 |
| `CNC(=O)C1(c2cnccn2)CCCN1C(=O)c1c(F)cccc1F` (stereo unspecified) | 10.94 | -19.31 |
| `O=C(Nc1cccnc1-n1cc(Cl)cn1)C1CC1` | 11.21 | 1.477 |
| `[H][C@@]12C[C@@H](OC)C[C@]1([H])CN(C(=O)c1cc3cccc(F)c3[nH]1)C2` | - | 17.75 |
| `Cc1cnn(C2CN(c3nc(C)cc(N(C)C)n3)C2)c1` | 18.82 | 13.76 |
| `CCn1ccc(NC(=O)CCc2c(C)noc2C)n1` | 14.11 | 20.05 |
| `O=C(O)C(F)(F)F.[H][C@@]12CN(C(=O)C3CCOC3)C[C@]1([H])C(=O)N(Cc1ccncc1)C2` (stereo partly specified) | - | 2.006 |
| `CCN(CC)c1ncnc2c1CCN(CC1CCOCC1)CC2` | 16.48 | - |
| `Cn1cc(C(=O)NC(Cn2cccn2)C(C)(C)C)cn1` (stereo unspecified) | 5.676 | 0.2694 |
| `COc1ccc(CCNC(=O)CN2CCCC2c2noc(C)n2)cc1` (stereo unspecified) | 22.35 | -7.438 |
| `CNC(=O)C(C)CN(C)C(=O)Nc1ccc(F)c(-n2cccc2)c1` (stereo unspecified) | 0.2786 | -6.073 |
| `COc1ccccc1Oc1ncccc1CNC(=O)[C@H](C)O` | 10.86 | -13.65 |
| `COCCc1noc(CN2CCCc3cccc(OC)c32)n1` | 13.09 | -0.5923 |
| `CCC(C#N)NC(=O)COC1CCCCC1` (stereo unspecified) | 6.069 | 5.919 |
| `O=C(O)C(F)(F)F.c1cnc(NC2COC3(CCN(Cc4ccoc4)CC3)C2)nc1` (stereo unspecified) | - | -26.4 |
| `CN(C)c1ccnc(C2CCCN2)n1` (stereo unspecified) | 14.69 | - |
| `COCCN1C[C@H]2CC[C@@H]1CN(Cc1nc3ccccc3n1C)C2` | 9.639 | - |
| `CCNC(=O)C1CCN(c2nc(-c3ccco3)nc3c2CCNCC3)C1` (stereo unspecified) | 12.41 | 5.837 |
| `CCc1nsc(N2CCC3(CC2)OCCO3)n1` | 16.39 | -4.174 |
| `CC(C)c1nc(CNC(=O)c2ccc(C(C)N3CCCCC3)o2)cs1` (stereo unspecified) | -0.2688 | -16.29 |
| `Cc1cnn(CCC(=O)N2CCCC(c3cc(C(N)=O)[nH]n3)C2)c1` (stereo unspecified) | 4.575 | -0.01682 |
| `O=C(NCc1cccnc1)c1cn(CCc2ccccc2)nn1` | 7.862 | -20.14 |
| `COCCN1CC[C@H]2OCC[C@@H](C(=O)Nc3cccnc3)[C@@H]2C1` | 12.97 | - |
| `CS(=O)(=O)Nc1ccn(Cc2cccc(Cl)c2)n1` | -1.759 | 6.738 |
| `CN1CCN(S(=O)(=O)c2cccc(F)c2)c2ccccc21` | 11.08 | -9.619 |
| `COc1cc(N2CCCn3cnc(COC(C)C)c3C2)ncn1` | 3.806 | - |

5 of the entries, repeated:

| structure | LdMetRS | Mtb heat-shock |
|---|---|---|
| `Cn1cc(C(=O)NC(Cn2cccn2)C(C)(C)C)cn1` (stereo unspecified) | 5.676 | 0.2694 |
| `[H][C@]12CN(Cc3ncccn3)CC[C@@]1(O)CCN(C(=O)C1CCCC1)C2` | - | 13.58 |
| `COc1cccc(N2CCN(C(C(=O)O)c3ccc(OC)nc3)CC2)c1` (stereo unspecified) | 15.16 | -24.13 |
| `Cc1cnn(CCC(=O)N2CCCC(c3cc(C(N)=O)[nH]n3)C2)c1` (stereo unspecified) | 4.575 | -0.01682 |
| `COCCc1noc(CN2CCCc3cccc(OC)c32)n1` | 13.09 | -0.5923 |